Some results come without the dose or concentration used.

The data set relates to cellular proteome in Huh-7 cells. As to the kind of experiment: In-gel fluorescence analysis / activity-based protein profiling of Huh-7 cellular proteome. Type of data set: cell-based. To be noted: Huh-7 proteome, click reaction with TAMRA-N3, SDS-Page.

For the compound `CN(C(=O)CCl)c1ccccc1C(=O)c1ccccc1` [IITK3001, N-(2-benzoylphenyl)-2-chloro-N-methylacetamide], the “molecular weight of covalently labelled protein band” value is reported as around 55 kDa.

The values above are taken from patent US20250099407A1, “2-AMINO BENZOPHENONE DERIVATIVES FOR TARGETED FERROPTOSIS INDUCTION IN CANCER THERAPY” (INDIAN INSTITUTE OF TECHNOLOGY KANPUR, priority 2023, published 2025).
